The target of test [1] is CD312 (human (in CD3+ T cells from children's bone marrow)) (UniProt Q9UHX3). As to the kind of experiment: co-IP; lysate of treated cells (40 mM HEPES pH 7.4, 0.5% Triton X-100, 2 mM EDTA, protease inhibitors); antibody overnight at 4°C, protein A/G agarose beads 4 h; SDS-PAGE and western blot; precipitating antibody not stated. On the technique in general: Immunoblotting shows a protein as a band on a membrane.

Chains of the proteins cited; added tags and fusions are not shown. Residues count along the entry.
UniProt Q9UHX3, residues 24-823: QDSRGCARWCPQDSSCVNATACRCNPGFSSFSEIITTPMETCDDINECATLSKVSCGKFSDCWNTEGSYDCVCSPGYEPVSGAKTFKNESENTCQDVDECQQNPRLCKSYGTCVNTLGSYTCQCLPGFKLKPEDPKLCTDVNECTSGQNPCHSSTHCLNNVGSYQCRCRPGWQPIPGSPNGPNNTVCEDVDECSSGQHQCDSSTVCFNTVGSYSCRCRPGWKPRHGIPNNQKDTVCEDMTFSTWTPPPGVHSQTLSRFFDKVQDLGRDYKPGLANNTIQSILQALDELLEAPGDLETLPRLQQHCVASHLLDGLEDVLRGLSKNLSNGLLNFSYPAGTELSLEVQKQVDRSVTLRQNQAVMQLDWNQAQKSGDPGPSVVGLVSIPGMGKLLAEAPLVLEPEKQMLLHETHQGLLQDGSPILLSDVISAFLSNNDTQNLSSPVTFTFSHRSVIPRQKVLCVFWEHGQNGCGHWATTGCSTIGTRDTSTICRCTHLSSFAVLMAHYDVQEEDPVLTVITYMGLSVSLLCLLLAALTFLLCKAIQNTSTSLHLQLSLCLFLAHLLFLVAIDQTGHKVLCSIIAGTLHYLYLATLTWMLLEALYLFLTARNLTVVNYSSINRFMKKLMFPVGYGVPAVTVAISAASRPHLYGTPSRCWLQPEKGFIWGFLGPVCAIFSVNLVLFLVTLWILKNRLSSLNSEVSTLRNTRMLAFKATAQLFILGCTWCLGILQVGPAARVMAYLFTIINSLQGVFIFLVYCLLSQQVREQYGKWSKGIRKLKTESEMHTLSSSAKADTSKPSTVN
UniProt P30679: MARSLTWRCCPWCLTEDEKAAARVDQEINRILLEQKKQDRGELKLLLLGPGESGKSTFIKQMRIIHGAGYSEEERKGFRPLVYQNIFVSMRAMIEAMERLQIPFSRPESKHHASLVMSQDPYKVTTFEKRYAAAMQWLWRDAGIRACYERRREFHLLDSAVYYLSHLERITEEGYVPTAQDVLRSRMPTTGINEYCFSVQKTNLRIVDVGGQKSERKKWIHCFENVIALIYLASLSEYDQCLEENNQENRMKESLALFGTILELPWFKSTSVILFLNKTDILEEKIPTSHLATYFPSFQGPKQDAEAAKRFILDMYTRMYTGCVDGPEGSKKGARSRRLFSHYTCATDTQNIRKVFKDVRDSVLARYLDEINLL

Test [2] has the same target. Nature of the test: proximity ligation; in situ DuoLink PLA kit (Sigma-Aldrich) on treated cells fixed with 4% paraformaldehyde; primary antibodies overnight.

These are yes or no findings as the source states them, for the method shown. Binding seen in cells or lysates may run through a third protein. Some binding calls cover weakened binding; strength is not graded here.

Turning to GNA15 (from UniProt P30679 1-374), the binding entry in test [1] and in test [2] was “binds” throughout.
